Results reported in PMC10500938.
No constants are given. Whether binding was seen depends on the method and setting. Binding seen in cells or lysates may run through a third protein. A yes stands for co-enrichment or nearness to the bait. Other partners may have been found.

Key:
[1] = biological target: SARS-CoV-2 Nsp6, Strep-tagged (SARS-CoV-2) (UniProt P0DTD1); test: affinity purification with mass spectrometry
[2] = biological target: SARS-CoV-2 Nsp8, Strep-tagged (SARS-CoV-2) (UniProt P0DTD1); test: affinity purification with mass spectrometry

Row | Substance | binding [1] | binding [2]
1 | ATPase subunit ATP5A1 (from UniProt P25705 44-553) | binds | binds
2 | ATPase subunit ATP5B (from UniProt P06576 48-529) | binds | binds
